Measured values: PubChem BioAssay AID2685 (National Center for Advancing Translational Sciences (NCATS), 2010)
The other results are listed elsewhere or left out. Shown are side measurements of this screen, not its main read-out; they come without a call. Most of these compounds were active or inconclusive in the main read-out, so they are no random draw. Words in brackets tell the shape of the fitted curve; partial curves, single points and poor fits give uncertain potencies.

Test: qHTS Assay for Lipid Storage Modulators in Drosophila S3 Cells;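 as to cell number change: cells counted by Cell Tracker Red CMTPX staining in the red channel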
Settings: BODIPY lipid droplet fluorescence, 18-24 h; for cell number change: measured here: cell count max response, cells fed with added oleic acid
Method in brief: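 Drosophila S3 cells loaded with oleic acid (400 uM, as added) and compounds at several concentrations; lipid droplets imaged by 488-nm laser-scanning cytometry, 500–530 nm intensity and object ratio to cell channel. Percent activity normalized to 20 uM Triacsin C.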

[1] = measured here: lipid fluorescence (Fed channel) AC50, cells fed with added oleic acid
[2] = measured here: cell number channel AC50, cells fed with added oleic acid

| Structure (SMILES) | cell number change | AC50 [1] | AC50 [2] |
| --- | --- | --- | --- |
| O=C1CCCC2=C1C(c1cccs1)n1nc(SCc3ccccc3)nc1N2 (centres undefined) | 82.8% | 2.91 µM [rising, partial curve] |  |
| CCNC(=O)CN(CCc1ccccc1)S(=O)(=O)c1ccc(OC)cc1 |  | 6.51 µM [falling, partial curve] |  |
| COc1ccc(C2NC(=O)C(C)S2)cc1 (centres undefined) | -7.05% | 0.82 µM [falling, partial curve] | 0.00461 µM [falling, full curve, poor fit] |
| O=C(Nc1ccc(F)cc1)NC1CCCCCCC1 | 2.48% |  | 6.51 µM [rising, single point] |
| CC(C)OC(=O)c1cccc(-c2ccc(C=O)o2)c1 | -20.3% | 2.06 µM [falling, partial curve, poor fit] |  |
| CC1CCCN(C(=O)COC(=O)Cc2c[nH]c3ccccc23)C1 (centres undefined) | -17.1% |  |  |
| CN(C)c1ccc(/C=N\NC(=S)SCN2C(=O)C3CCC(C)(C2=O)C3(C)C)cc1 (centres undefined) | -12.1% | 16.4 µM [falling, partial curve, poor fit] |  |
| CCCCCCOc1ccc(C(=O)NCCCn2ccnc2)cc1 | 11.3% |  |  |
| Cc1cc(C(=O)Nc2ccccc2C)on1 | 13.2% | 35.5 µM [falling, single point] |  |
| CCOC(=O)C1CCCN(c2nnnn2-c2ccccc2)C1 (centres undefined) | 0.14% |  |  |
| COc1ccc(/C=C(\C#N)C(=O)OCC(=O)NC(=O)NCCC(C)C)cc1 | 0.415% | 0.103 µM [falling, full curve, poor fit] | 0.092 µM [falling, full curve] |
| CCN(CC)C(=O)Cn1cc(C(=O)C(=O)N2CCN(Cc3ccc4c(c3)OCO4)CC2)c2ccccc21 | 26.7% | 3.26 µM [rising, partial curve, poor fit] |  |
| CCOC(=O)c1c(N)sc2c(O)c(Br)ccc12 | 0.722% | 0.103 µM [rising, full curve, poor fit] | 0.082 µM [rising, full curve, poor fit] |
| CC(=O)NC(Cc1ccc(F)cc1)C(=O)NC1CCN(S(=O)(=O)c2ccccc2)CC1 (centres undefined) | 11.5% | 0.116 µM [falling, single point] |  |
| COc1ccc(NC(=O)CN(C)C(=O)CSc2ccc3c(c2)OCCO3)cc1 | 39.9% | 29.1 µM [rising, single point] | 29.1 µM [rising, single point] |
| Cc1ccc(C)c(-n2nnnc2Sc2nnnn2-c2ccccc2)c1 |  | 0.0058 µM [falling, full curve, poor fit] |  |
| CC(=O)C(=Nc1ccccc1Cl)NNc1ccc(Cl)cc1 |  | 13 µM [falling, partial curve] |  |
| COCCN(C/C=C/c1ccccc1)C/C=C/c1ccccc1 | 4.21% |  |  |
| Cc1ccc2c(C)c(C(=O)Nc3cccnc3)oc2c1 |  | 6.51 µM [rising, single point] |  |

Only AC50 [1] and cell number change, for some of the entries so far:
Structure (SMILES)	AC50 [1]	cell number change
CC(=O)NC(Cc1ccc(F)cc1)C(=O)NC1CCN(S(=O)(=O)c2ccccc2)CC1 (centres undefined)	0.116 µM [falling, single point]	11.5%
COc1ccc(NC(=O)CN(C)C(=O)CSc2ccc3c(c2)OCCO3)cc1	29.1 µM [rising, single point]	39.9%
Cc1ccc(C)c(-n2nnnc2Sc2nnnn2-c2ccccc2)c1	0.0058 µM [falling, full curve, poor fit]	

Next part.

| Structure (SMILES) | cell number change | AC50 [1] | AC50 [2] |
| --- | --- | --- | --- |
| CCNC(=S)N/N=C/c1cc(C)n(-c2ccc(Cl)cc2)c1C | 65% | 29.1 µM [rising, single point] |  |
| Cc1cc(N/C=C\c2nnnn2-c2ccccc2)no1 | 4.15% | 3.66 µM [falling, full curve] |  |
| O=C(OCC(=O)N1CCN(c2ccccc2)CC1)c1cccs1 | 54.2% | 29.1 µM [rising, single point] | 13 µM [rising, partial curve] |
| COc1c(C)cc(S(=O)(=O)N2CCCC2)c(C)c1C | 55.2% |  | 20.6 µM [rising, partial curve, poor fit] |
| CCN(CC)c1ccc(NC(=O)C2=CCN(S(=O)(=O)c3ccc(F)cc3)CC2)c(C)c1 | 3.17% | 8.2 µM [rising, partial curve] |  |
| [O-]/[N+](=C\c1ccccc1)[C@@H]1CCCC[C@@H]1/[N+]([O-])=C/c1ccccc1 | 3.31% | 3.26 µM [falling, single point] |  |
| O=C(c1cccc(S(=O)(=O)Nc2ccccc2F)c1)N1CCN(c2ccccc2F)CC1 |  |  | 1.64 µM [rising, partial curve, poor fit] |
| Cc1cc(C)n(C(=O)/C(C#N)=N/Nc2cc(Cl)cc(Cl)c2)n1 | -67.5% |  | 7.31 µM [falling, partial curve] |
| Cc1ccc(NC(=O)C2CCN(S(C)(=O)=O)CC2)cc1Cl | -13.8% | 32.6 µM [falling, single point] |  |
| O=S(=O)(c1cc(Cl)ccc1Cl)N1CCCCC1 | 49.5% | 0.0164 µM [rising, full curve] | 10.3 µM [rising, partial curve] |
| O=C(Nc1ccc2c(c1)OCCO2)c1cc(-c2ccccn2)nc2ccc(Br)cc12 | -55.8% | 16.4 µM [falling, partial curve] | 20.6 µM [falling, partial curve] |
| CCN(CC)S(=O)(=O)c1ccc(NC(=O)c2ccc(OCC3CCCO3)cc2)cc1 (centres undefined) | -41.7% | 0.291 µM [falling, partial curve, poor fit] | 20.6 µM [falling, partial curve] |
| CC1(C)N([O-])C(c2ccccc2)=C[N+](=O)C1(C)C | 0.552% | 0.461 µM [rising, single point] |  |
| CCCCc1nc2cc(C(=O)N3CCCCC3C(=O)OC)ccc2o1 (centres undefined) |  | 2.91 µM [falling, single point] |  |
| CC1CCCCC1NC(=O)/C(C#N)=C/c1ccccc1F (centres undefined) | -37% | 3.66 µM [falling, partial curve] | 16.4 µM [falling, partial curve] |
| O=C(NC1CCCCCCC1)C1=COCCO1 | 13.3% | 0.92 µM [falling, full curve] | 0.731 µM [falling, full curve] |
| CC(=O)N=C1C=CC(=CN(O)C(C)(C)Cc2ccccc2)C=C1 | -9.97% | 29.1 µM [falling, single point] |  |
| COc1ccc(C(=O)Nc2nnc(S(=O)(=O)N3CCCCCC3)s2)cc1OC | -3.29% | 2.91 µM [falling, partial curve, poor fit] |  |
